Experimental data from PubChem BioAssay AID2685 (National Center for Advancing Translational Sciences (NCATS), 2010).
The list shows a part of the results. The main result of the screen is listed elsewhere. These columns were measured beside it and carry no call. Most of these compounds were active or inconclusive in the main read-out, so they are no random draw. The note in brackets gives the kind of curve behind each potency; many fits are weak.

Assay: qHTS Assay for Lipid Storage Modulators in Drosophila S3 Cells;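 on cell number change: cells counted by Cell Tracker Red CMTPX staining in the red channel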
Details: BODIPY lipid droplet fluorescence, 18-24 h; for cell number change: measured here: cell count max response, cells fed with added oleic acid
Procedure, shortened: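 Drosophila S3 cells got compounds at several concentrations plus oleic acid (400 uM solution). Laser-scanning cytometry with 488 nm excitation read lipid droplets at 500-530 nm and cells at 575-640 nm. Percent activity was relative to 20 uM Triacsin C.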

[1] = measured here: lipid fluorescence (Fed channel) AC50, cells fed with added oleic acid
[2] = measured here: cell number channel AC50, cells fed with added oleic acid

For CCOC(=O)N1CCC(NC(=O)C(CC(C)C)NC(=O)C2CCCCC2)CC1 (centres undefined), the cell number change was 0.674% and the AC50 [1] was 7.31 µM [falling, single point].
With Cc1ccc(C)c(S(=O)(=O)NCC(c2ccco2)N2CCc3ccccc3C2)c1 (centres undefined) the cell number change was 1.99% and the AC50 [1] was 0.58 µM [falling, full curve].
Work on CC(=O)c1cccc(NC(=O)Nc2ccc3c(c2)CCC3)c1 yielded a cell number change of 32.4%.
In the case of COc1cc(C(=O)O)nc2ccc([N+](=O)[O-])cc12, the cell number change is reported as 5.08% and the AC50 [1] is reported as 0.0651 µM [rising, single point].
With O=C(NCSC1=NCCS1)c1ccccc1 the cell number change was 1.55% and the AC50 [1] was 29.1 µM [rising, single point].
With Cc1c(NC(=O)c2ccc(N3C(=O)C4C5C=CC(C5)C4C3=O)cc2)c(=O)n(-c2ccccc2)n1C (centres undefined) the cell number change was 5.71% and the AC50 [1] was 0.731 µM [falling, single point].
For COc1ccccc1OCCOc1ccc(/C=C2\C(=N)N3N=C(S(C)(=O)=O)SC3=NC2=O)cc1, the cell number change was -8.7% and the AC50 [1] was 0.651 µM [rising, single point].
Work on CCCn1c2ccccc2c2cnn(CC(=O)O)c(=O)c21 yielded a cell number change of 17.1%.
In the case of CCOc1ccc(N(CC(=O)NCCc2ccccc2)S(=O)(=O)c2ccccc2)cc1, the cell number change is reported as 1.9% and the AC50 [1] is reported as 29.1 µM [rising, partial curve, poor fit].
In the case of O=C(NCCCn1ccnc1)c1ccc(Br)s1, the cell number change is reported as 29.7% and the AC50 [2] is reported as 3.66 µM [rising, full curve, poor fit].
In the case of COc1ccc(C2=NS(=O)(=O)N(C)C(C(=O)N(C)Cc3ccccc3)=C2)cc1OC, the cell number change is reported as 2.02% and the AC50 [1] is reported as 32.6 µM [falling, single point].
With COc1ccc(-n2c(SCC(=O)NCc3ccco3)nnc2-c2c[nH]c3ccccc23)cc1 the AC50 [2] was 0.92 µM [rising, partial curve].
Cn1c(N)c(C(=O)CSc2nnc(C3CC3)n2Cc2ccccc2)c(=O)[nH]c1=O showed a cell number change of 15.9%.
In the case of O=S(=O)(N1CCCCC1)N1CCN(CC(O)COc2ccc3cc(Br)ccc3c2)CC1 (centres undefined), the cell number change is reported as -76.6% and the AC50 [2] is reported as 23.1 µM [falling, single point].
For COc1ccc(N(C(=O)c2ccccc2C)S(=O)(=O)c2cccs2)cc1, the cell number change was -23.3% and the AC50 [1] was 3.26 µM [falling, full curve].
With COc1ccc(C(=O)C2CCN(C(=O)c3ccc(C)cc3)CC2)cc1 the cell number change was -21.2% and the AC50 [1] was 29.1 µM [falling, single point].
In the case of COC(CNS(=O)(=O)c1ccc(S(=O)(=O)N2CCCC2)cc1)OC, the cell number change is reported as 30.9% and the AC50 [2] is reported as 4.11 µM [rising, partial curve].
For COc1ccccc1NC(C)C(=O)Nc1ccc(C(C)=O)cc1 (centres undefined), the cell number change was 16.5%, the AC50 [2] was 6.51 µM [rising, single point] and the AC50 [1] was 2.91 µM [falling, full curve, poor fit].
With CCOC(=O)Cn1nc(NC(=O)c2ccc3c(c2)OCO3)cc1C the cell number change was 20% and the AC50 [1] was 29.1 µM [falling, single point].
In the case of Cc1[nH]n(-c2ccccc2)c(=O)c1C=Nc1ccc(S(=O)(=O)N=C(N)N)cc1, the cell number change is reported as 39.3%, the AC50 [2] is reported as 29.1 µM [rising, single point] and the AC50 [1] is reported as 29.1 µM [rising, single point].
With CC(C)C(C(=O)NCc1ccco1)N(C(=O)CNS(=O)(=O)c1ccccc1)c1ccccc1 (centres undefined) the cell number change was -19% and the AC50 [1] was 1.84 µM [falling, single point].
For COc1ccc(CNC(=O)CCCn2nc(C)c3c(C)n(-c4ccc(C)cc4)nc3c2=O)cc1, the cell number change was 2.99% and the AC50 [1] was 29.1 µM [falling, single point].
In the case of CCCCNC(=O)COC(=O)c1cc(S(=O)(=O)N2CCCCCC2)ccc1OC, the AC50 [2] is reported as 3.66 µM [rising, single point].
For CCn1nc(NC(=O)c2ccco2)c2cc3ccc(C)cc3nc21, the cell number change was 16%, the AC50 [2] was 0.411 µM [rising, partial curve] and the AC50 [1] was 2.59 µM [rising, partial curve].
With CCN(C(=O)c1ccc(NC(=O)c2ccco2)cc1)c1ccccc1 the cell number change was 2.89% and the AC50 [1] was 16.4 µM [rising, partial curve, poor fit].
In the case of O=C(Nc1ccc([N+](=O)[O-])cc1)N1CCCCCC1, the cell number change is reported as 12.6% and the AC50 [1] is reported as 5.62 µM [falling, single point].
In the case of COc1ccc(-c2nnc(SCC(=O)NC(=O)NCc3ccco3)o2)cc1, the AC50 [1] is reported as 1.64 µM [falling, partial curve].
Molecule Cc1ccc(C)c(NC(=O)c2ccc(OCc3c(C)noc3C)cc2)c1 has a cell number change of -46.6%.
In the case of CC(=O)C(=Cc1cn(-c2ccccc2)nc1-c1ccccc1)C(C)=O, the cell number change is reported as 38.9%, the AC50 [2] is reported as 5.8 µM [rising, full curve] and the AC50 [1] is reported as 5.8 µM [rising, single point].
In the case of COc1ccc(OC)c(S(=O)(=O)N2CCC(C(=O)NCc3ccccc3OC)CC2)c1, the AC50 [2] is reported as 6.51 µM [rising, single point].
Clc1ccc(OCc2nnnn2-c2ccccc2)cc1 gave a cell number change of -15.8%.
For C/C=C\C(=O)Nc1cccc(C2=NOC3(C2)C[C@@H](C(N)=O)N(C(=O)C2(C)CC2)C3)c1 (some centres undefined), the cell number change was 27.2% and the AC50 [1] was 14.6 µM [rising, partial curve, poor fit].
